Reference: publication PMC9668335

Amino acid sequences for entries named in this document (tags omitted). A change or cut given only in a name is not applied to a line headed by its entry.
UniProt Q96RK0: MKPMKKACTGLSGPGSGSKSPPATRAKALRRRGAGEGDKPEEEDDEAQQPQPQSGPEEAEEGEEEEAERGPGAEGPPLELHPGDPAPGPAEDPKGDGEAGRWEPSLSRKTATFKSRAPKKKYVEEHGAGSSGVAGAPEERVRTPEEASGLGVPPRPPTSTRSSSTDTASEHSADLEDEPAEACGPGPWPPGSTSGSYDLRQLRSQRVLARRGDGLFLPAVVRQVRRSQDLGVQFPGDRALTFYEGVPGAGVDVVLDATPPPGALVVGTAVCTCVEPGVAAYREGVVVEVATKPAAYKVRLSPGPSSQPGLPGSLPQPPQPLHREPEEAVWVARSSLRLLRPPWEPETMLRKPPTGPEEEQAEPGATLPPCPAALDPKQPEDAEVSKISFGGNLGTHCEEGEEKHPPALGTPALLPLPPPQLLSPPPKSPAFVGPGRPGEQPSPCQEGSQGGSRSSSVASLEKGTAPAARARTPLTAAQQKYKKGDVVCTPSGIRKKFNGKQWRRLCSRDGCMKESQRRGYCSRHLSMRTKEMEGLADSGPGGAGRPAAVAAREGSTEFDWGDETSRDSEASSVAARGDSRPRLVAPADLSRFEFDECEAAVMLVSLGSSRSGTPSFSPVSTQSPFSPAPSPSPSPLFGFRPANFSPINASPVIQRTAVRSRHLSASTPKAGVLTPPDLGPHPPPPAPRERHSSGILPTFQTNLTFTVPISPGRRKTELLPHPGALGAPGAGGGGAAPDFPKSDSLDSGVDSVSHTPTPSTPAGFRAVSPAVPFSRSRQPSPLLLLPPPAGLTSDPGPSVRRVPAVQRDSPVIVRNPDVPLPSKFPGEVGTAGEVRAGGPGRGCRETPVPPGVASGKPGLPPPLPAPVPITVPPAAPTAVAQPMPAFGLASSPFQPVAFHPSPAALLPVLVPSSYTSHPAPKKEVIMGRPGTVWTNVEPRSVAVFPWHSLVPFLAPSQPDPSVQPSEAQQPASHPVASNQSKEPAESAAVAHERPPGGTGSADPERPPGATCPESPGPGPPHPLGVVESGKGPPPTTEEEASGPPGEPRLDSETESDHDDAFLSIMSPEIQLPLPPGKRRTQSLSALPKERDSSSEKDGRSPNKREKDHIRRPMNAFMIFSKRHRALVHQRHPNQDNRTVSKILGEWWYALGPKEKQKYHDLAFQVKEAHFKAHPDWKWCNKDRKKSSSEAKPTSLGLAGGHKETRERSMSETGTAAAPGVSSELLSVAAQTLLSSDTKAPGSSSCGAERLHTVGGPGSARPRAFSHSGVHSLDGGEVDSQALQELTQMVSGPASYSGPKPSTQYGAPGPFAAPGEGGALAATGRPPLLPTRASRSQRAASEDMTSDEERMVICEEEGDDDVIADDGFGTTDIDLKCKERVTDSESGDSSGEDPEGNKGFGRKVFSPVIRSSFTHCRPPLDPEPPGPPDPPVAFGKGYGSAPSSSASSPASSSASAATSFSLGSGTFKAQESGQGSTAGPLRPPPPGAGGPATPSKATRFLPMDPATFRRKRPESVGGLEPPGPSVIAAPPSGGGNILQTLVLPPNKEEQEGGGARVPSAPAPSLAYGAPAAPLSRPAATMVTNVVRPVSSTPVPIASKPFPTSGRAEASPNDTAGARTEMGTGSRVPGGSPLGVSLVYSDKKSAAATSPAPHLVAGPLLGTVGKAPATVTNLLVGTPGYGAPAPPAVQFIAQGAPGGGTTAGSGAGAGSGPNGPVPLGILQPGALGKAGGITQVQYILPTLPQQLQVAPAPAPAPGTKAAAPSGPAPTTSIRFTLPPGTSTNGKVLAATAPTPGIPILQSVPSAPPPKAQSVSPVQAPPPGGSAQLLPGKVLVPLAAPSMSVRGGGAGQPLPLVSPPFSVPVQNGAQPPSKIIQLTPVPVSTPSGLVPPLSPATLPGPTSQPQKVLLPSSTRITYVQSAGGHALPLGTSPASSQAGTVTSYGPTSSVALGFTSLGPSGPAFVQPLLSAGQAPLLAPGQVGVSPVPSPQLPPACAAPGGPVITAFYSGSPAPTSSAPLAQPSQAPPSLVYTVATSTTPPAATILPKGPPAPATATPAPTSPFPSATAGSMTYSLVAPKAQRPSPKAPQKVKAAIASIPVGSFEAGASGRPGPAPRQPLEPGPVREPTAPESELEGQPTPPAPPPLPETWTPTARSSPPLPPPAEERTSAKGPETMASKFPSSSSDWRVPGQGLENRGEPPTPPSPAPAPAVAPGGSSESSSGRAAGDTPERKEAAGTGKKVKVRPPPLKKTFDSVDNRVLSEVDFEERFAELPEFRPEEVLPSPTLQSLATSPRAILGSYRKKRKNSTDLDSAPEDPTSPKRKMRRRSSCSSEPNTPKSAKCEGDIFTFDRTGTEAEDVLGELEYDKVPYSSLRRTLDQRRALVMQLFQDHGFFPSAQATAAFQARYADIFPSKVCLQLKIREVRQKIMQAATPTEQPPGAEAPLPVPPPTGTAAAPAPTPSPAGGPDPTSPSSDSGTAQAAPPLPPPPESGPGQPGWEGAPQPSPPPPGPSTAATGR

Molecular target: Myc-tagged Capicua (CIC) (human) (UniProt Q96RK0)
Experiment: co-IP; HEK293T cells transfected with Myc-tagged CIC for 48 hr; lysate incubated with anti-myc magnetic beads (or IgG on Dynabeads Protein G) overnight at 4 °C; blotted for Myc or ERF

B1: ETS2 repressor factor (ERF), detected by ERF antibody in HEK293T lysate (protein, UniProt P50548 1-548)
chain: MKTPADTGFAFPDWAYKPESSPGSRQIQLWHFILELLRKEEYQGVIAWQGDYGEFVIKDPDEVARLWGVRKCKPQMNYDKLSRALRYYYNKRILHKTKGKRFTYKFNFNKLVLVNYPFIDVGLAGGAVPQSAPPVPSGGSHFRFPPSTPSEVLSPTEDPRSPPACSSSSSSLFSAVVARRLGRGSVSDCSDGTSELEEPLGEDPRARPPGPPDLGAFRGPPLARLPHDPGVFRVYPRPRGGPEPLSPFPVSPLAGPGSLLPPQLSPALPMTPTHLAYTPSPTLSPMYPSGGGGPSGSGGGSHFSFSPEDMKRYLQAHTQSVYNYHLSPRAFLHYPGLVVPQPQRPDKCPLPPMAPETPPVPSSASSSSSSSSSPFKFKLQPPPLGRRQRAAGEKAVAGADKSGGSAGGLAEGAGALAPPPPPPQIKVEPISEGESEEVEVTDISDEDEEDGEVFKTPRAPPAPPKPEPGEAPGASQCMPLKLRFKRRWSEDCRLEGGGGPAGGFEDEGEDKKVRGEGPGEAGGPLTPRRVSSDLQHATAQLSLEHRDS
With B1 the binding was “no binding”.

Results are given in words; binding and its absence hold for the method and conditions named. In cells and extracts the contact can be indirect.
